Results: paper PMC12845483 (2026)
Plain letter strings leave the end groups untold.

Test: peptide made by a vendor
Settings: whole synthesis, HPLC

Row | Substance | purity (crude or final not stated) [%]
1 | CRGDKGPDCRRRRRRRRRR | 99
2 | DGARYCRGDCFDG-RRRRRRRRRR | 99
3 | RRRRRRRRRR | 98
4 | RRRRRRRRRR-RGD | 96
